Measurements: PubChem BioAssay AID493014 (National Center for Advancing Translational Sciences (NCATS), 2011)
Screen size: about 340,000 compounds; about 170 (0.05%) were called active. The shares of active, inactive and inconclusive entries below differ from those in the screen. The call rests on the fitted dose curve; in most records, active means well fitted inhibition curve with a large enough effect in the signal ratio, with a control signal flat (not every such curve was filed as active); inconclusive means small, poorly fitted or top-dose-only effect, or effect the other way, or a change in a side signal; inactive means flat fitted curve, though single readings scatter; the % refers to the signal ratio. Potencies of inconclusive entries are doubtful fits and often do not repeat.

Test: qHTS Assay to Find Inhibitors of Chronic Active B-Cell Receptor Signaling;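 on activity change, negative = inhibition: plate controls were basal doxycycline-induced cells for no effect and cells given 10 µM MG132 for full effect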
Details: ABC-DLBCL IkBa-CBG/CBR reporter, luminescence ratio (green luciferase fused to IkBa over red control in TMD8 lymphoma cells), 4 h; activity change, negative = inhibition: at 46.1 µM (top of the series) unless noted
In short: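 Compounds up to 46 uM were incubated four hours with TMD8 cells whose green CBG68 luciferase is fused to IkappaBalpha; red CBR luminescence normalised the signal, and concentration-effect curves were fitted to fusion, red and ratio data.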
Potency means the concentration at half of the fitted maximal effect.

Compound | activity change, negative = inhibition | Potency
Cc1cccc(C#Cc2ccccc2)n1 | inconclusive: 1.51% | 
Nc1ccc(C(=O)OCC(=O)N2CCOCC2)cc1[N+](=O)[O-] |  | inconclusive: 18.4 µM [falling, partial curve]
COc1cc(NC(=S)N2CCN(S(=O)(=O)c3ccc(F)cc3)CC2)cc(OC)c1 | inconclusive: -9.85% | 
c1ccc(-c2nnc(-c3ccccn3)s2)nc1 |  | inconclusive: 3.55 µM [falling, single point]
O=C(Nc1ccc([N+](=O)[O-])cc1)c1ccccc1 |  | inconclusive: 22.4 µM [falling, partial curve]
O=C1CC(c2ccc(F)cc2)CC2=C1C=Nc1ccccc1N2 (configuration not stated) | inactive | 
Fc1ccc(OCc2cc(-c3ccccc3)no2)cc1 |  | inconclusive: 25.1 µM [falling, single point]
Nc1nc(N2CCN(C(=O)c3ccco3)CC2)nc2ccccc12 | inactive | 
CCCn1ccc2c(OCC(=O)Nc3ccc(OC)c(OC)c3)cccc2c1=O | inactive | 
O=C(NCCc1ccc(F)cc1)C(=O)NCC(c1cccs1)S(=O)(=O)c1ccccc1 (configuration not stated) | inactive | 
CC1(C)SC(=S)N(NC(=O)Nc2ccccc2)C1N(O)C(=O)Nc1cccc2ccccc12 (configuration not stated) | inconclusive: 5.81% | 
Cc1noc(C(=O)Nc2cc(Cl)ccc2O)c1Cl | inconclusive: 1.85% | 
O=C(Nc1ccc(F)cc1)Nc1csc2ccccc12 | inconclusive: 3.94% | 
FC(F)(F)c1ccc(/C=N/n2c(C3CCCCC3)n[nH]c2=S)cc1 | inconclusive: 4.26% | 
CCc1ccc(N2CC(C(=O)OCc3nc4ccsc4c(=O)[nH]3)CC2=O)cc1 (configuration not stated) | inactive | 
COc1ccc(C(CNC(=O)c2cc(C)oc2C)N2CCOCC2)cc1 (configuration not stated) | inconclusive: -8.06% | 
Nc1nc(CSc2nc3ccccc3s2)nc(Nc2ccccc2)n1 | inconclusive: 14.4% | 
O=C(Nc1ccccc1N1CCOCC1)c1cccc2c(Br)cccc12 | inactive | 
C/C(=N\NC(=O)c1ccccc1)c1ccc2c(c1)OCO2 |  | inconclusive: 6.51 µM [falling, single point]
O=C(Cn1cnc2ccccc2c1=O)Nc1ccc2c(c1)OCO2 | inconclusive: 0.198% | 
CC1CCCN(c2nc(-c3cccnc3)nc3scc(-c4ccccc4)c23)C1 (configuration not stated) | inconclusive: 21.7% | 
CC(=O)Nc1ccc(N2C(=O)c3cccc4c(O)ccc(c34)C2=O)cc1 |  | inconclusive: 31.6 µM [rising, partial curve, poor fit]
Cc1ccc(SC2=C(Sc3ccc(C)cc3)C(=O)c3ccccc3C2=O)cc1 | inconclusive: 15.5% | 
O=C(CN(C1CC1)S(=O)(=O)c1ccc(S(=O)(=O)NC2CCCCC2)cc1)Nc1ccccc1 | inconclusive: -5.08% | 
COc1ccccc1N1CCN(C(=O)c2ccc3c(c2)CCN3S(=O)(=O)c2ccccc2)CC1 | inconclusive: -12.6% | 
COc1ccc(NC(=O)N2CCCC2C(=O)NC23CC4CC(CC(C4)C2)C3)cc1 (configuration not stated) | inconclusive: 1.1% | 

Compound | activity change, negative = inhibition | Potency
C/C(=N\NC(=O)c1nn(C)cc1Br)c1ccncc1 |  | inconclusive: 16.4 µM [falling, partial curve]
COCC(=O)NCc1ccc2c(c1)cc(C)n2C | inconclusive: 8.67% | 
CN1/C(=C\C(=O)Nc2ccc(Br)cc2)C(C)(C)c2ccccc21 | inconclusive: 14.8% | 
COc1ccc2cc(CN(CC3CCCO3)C(=O)Nc3ccccc3)c(=O)[nH]c2c1 (configuration not stated) | inconclusive: 13.7% | 
COc1ccc([C@H]2CC(=O)C=C(c3ccc(Cl)cc3C)C2)cc1 | inactive | 
CC(=O)[C@H]1CCC2C3CC=C4C[C@@H](O)CC[C@]4(C)C3CC[C@@]21C (some centres not stated) | inconclusive: 8.25% | 
Cc1cc(C)n2nc(C(=O)Nc3cccc(S(=O)(=O)N(C)c4ccccc4)c3)nc2n1 | inconclusive: 4.6% | 
CCCCn1c(SCC(=O)NCC2CCCO2)nc2ccc(N3CCOCC3)cc2c1=O (configuration not stated) | inconclusive: 13.4% | 
COc1cc(NC(=O)C(=O)N2CCN(C)CC2)c(OC)cc1Cl | inconclusive: -7.21% | 
O=C(Nc1nnc(-c2ccccc2)o1)c1cc(-c2cccs2)nc2ccccc12 |  | inconclusive: 20.6 µM [cytotoxic, single point]
CC1CCN(C(=O)CC2C(=O)Nc3c2c(=O)n(C)c(=O)n3Cc2ccccc2)CC1 (configuration not stated) | inconclusive: 15.6% | 
CCN(CC(=O)Nc1ccc(NC(C)=O)cc1)CC(=O)Nc1cc(C)on1 | inconclusive: 5.2% | 
Cc1cc(C)c(C#N)c(SC(C(=O)NC(C)(C)C)c2ccccc2)n1 (configuration not stated) | inconclusive: 4.32% | 
Nc1cccc(-c2csc(-n3ncc(C(=O)O)c3C(F)(F)F)n2)c1 | inconclusive: -0.335% | 
COc1ccc(NCc2nnc(SCC(=O)Nc3ccccc3OC)o2)cc1 | inconclusive: 0.602% | 
CC(=O)C1=C(C)Nc2ncnn2C1c1ccccc1F (configuration not stated) | inconclusive: 3.98% | 
Cc1ccc(-n2c(C)c(C)c3c(NCCO)ncnc32)cc1 | inconclusive: -2.81% | 
Cc1cc(CNC(=O)c2cccc([N+](=O)[O-])c2C)c2ccccc2n1 | inactive | 
Cc1cc(C)c(/C=C2\C(=O)Nc3ccccc32)[nH]1 |  | inconclusive: 3.16 µM [falling, partial curve, poor fit]
Cc1ccccc1S(=O)(=O)Cc1ccc(C(=O)N2CCN(c3ccccc3F)CC2)o1 | inconclusive: 13% | 
CC1CCN(c2c(NCC3CCC(C(=O)NCc4ccccc4)CC3)c(=O)c2=O)CC1 (configuration not stated) | inactive | 
COc1ccccc1OCCNC(=O)CCNC(=O)c1ccccc1OC | inactive | 
CC(C)CN(C(=O)CCCc1nc2ccccc2c(=O)[nH]1)c1c(N)n(Cc2ccccc2)c(=O)[nH]c1=O | inactive | 
CCCCOC(=O)c1ccc(N/C(=N\S(=O)(=O)c2ccccc2)c2ccccc2)cc1 | inactive | 
COc1ccccc1NC(=S)NNC(=O)c1ccncc1 |  | inconclusive: 15.8 µM [falling, partial curve, poor fit]
CC[C@H]1OC(=O)[C@H](C)[C@@H](O[C@H]2C[C@@](C)(OC)[C@@H](O)[C@H](C)O2)[C@H](C)[C@@H](O[C@@H]2O[C@H](C)C[C@H](N(C)C)[C@H]2O)[C@](C)(O)C[C@@H](C)[C@@H]2N[C@@H](COCCOC)O[C@H]([C@H]2C)[C@]1(C)O |  | inconclusive: 20.6 µM [falling, partial curve, poor fit]

Another view of 3 compounds above.

| Compound | activity change, negative = inhibition | Potency |
| --- | --- | --- |
| CC(=O)[C@H]1CCC2C3CC=C4C[C@@H](O)CC[C@]4(C)C3CC[C@@]21C (some centres not stated) | inconclusive: 8.25% |  |
| Cc1cc(C)n2nc(C(=O)Nc3cccc(S(=O)(=O)N(C)c4ccccc4)c3)nc2n1 | inconclusive: 4.6% |  |
| CCCCn1c(SCC(=O)NCC2CCCO2)nc2ccc(N3CCOCC3)cc2c1=O (configuration not stated) | inconclusive: 13.4% |  |
